Measurements published in PubChem BioAssay AID2685 (National Center for Advancing Translational Sciences (NCATS), 2010).
The other results are listed elsewhere or left out. Shown are side measurements of this screen, not its main read-out; they come without a call. Most of these compounds were active or inconclusive in the main read-out, so they are no random draw. Words in brackets tell the shape of the fitted curve; partial curves, single points and poor fits give uncertain potencies.

Experiment: qHTS Assay for Lipid Storage Modulators in Drosophila S3 Cells;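 on cell number change: cells counted by Cell Tracker Red CMTPX staining in the red channel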
Conditions: BODIPY lipid droplet fluorescence, 18-24 h; for cell number change: measured here: cell count max response, cells fed with added oleic acid
In short: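 Drosophila S3 cells loaded with oleic acid (400 uM, as added) and compounds at several concentrations; lipid droplets imaged by 488-nm laser-scanning cytometry, 500–530 nm intensity and object ratio to cell channel. Percent activity normalized to 20 uM Triacsin C.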

[1] = measured here: lipid fluorescence (Fed channel) AC50, cells fed with added oleic acid
[2] = measured here: cell number channel AC50, cells fed with added oleic acid

SMILES: C=CCN(CC=C)C(=O)C1CCN(S(=O)(=O)c2ccc(N3CCCC3=O)cc2)CC1
- cell number change: -21.5%

SMILES: O=[N+]([O-])c1cccc(NC(=S)N2CCCC2)c1
- cell number change: 6.07%
- AC50 [1]: 29.1 µM [rising, single point]

SMILES: CCCCNC(=O)c1ccccc1C(=O)NCCCC
- cell number change: -5.34%
- AC50 [1]: 29.1 µM [falling, partial curve, poor fit]

SMILES: CCc1cccc(OCC(=O)Nc2ccc(S(=O)(=O)N3CCCC3)cc2)c1
- cell number change: -10.9%
- AC50 [1]: 8.2 µM [falling, partial curve]

SMILES: CCn1c(=O)c(C(=O)NCc2ccc(Cl)cc2)c(O)c2ccccc21
- cell number change: -10.2%

SMILES: Cc1cc(C)c2c(=O)n(CC(=O)NCCCN3CCOCC3)sc2n1
- cell number change: -160%
- AC50 [2]: 29.1 µM [falling, single point]
- AC50 [1]: 29.1 µM [falling, single point]

SMILES: COc1ccc(CCNC(=O)C2CCCN(S(=O)(=O)c3cnc[nH]3)C2)cc1OC (centres undefined)
- cell number change: 3.56%

SMILES: CC(=O)N1CCN(S(=O)(=O)c2ccccc2)C1c1ccccc1 (centres undefined)
- cell number change: -10.2%
- AC50 [1]: 0.58 µM [falling, single point]

SMILES: Cc1ccc(C2=Nc3ccccc3N(C(=O)c3ccccc3)C(C)C2)cc1 (centres undefined)
- cell number change: 12.9%

SMILES: COc1ccc(COC(=O)C2CC(=O)N(Cc3ccccc3)C2)cc1 (centres undefined)
- cell number change: 21.1%
- AC50 [1]: 0.00651 µM [rising, full curve, poor fit]

SMILES: O=C(NC1CCCCC1)N(CCN1CCOCC1)Cc1cc2cc3c(cc2[nH]c1=O)OCCO3
- cell number change: 3.09%

SMILES: Cc1cccc(C)c1N(CC(O)Cn1c2ccccc2c2ccccc21)S(C)(=O)=O (centres undefined)
- cell number change: -70%
- AC50 [2]: 32.6 µM [falling, single point]
- AC50 [1]: 1.46 µM [rising, partial curve]

SMILES: CCOC(=O)c1c(C2COc3ccccc3O2)csc1N (centres undefined)
- cell number change: -33.5%
- AC50 [2]: 29.1 µM [falling, single point]
- AC50 [1]: 29.1 µM [falling, single point]

SMILES: CCCOc1ccc(CC(CC(=O)O)(C(=O)O)C(=O)O)cc1
- cell number change: -6.82%
- AC50 [1]: 0.517 µM [falling, full curve, poor fit]

SMILES: O=C(O)CCC(=O)Nc1ccc(Cc2ccc(NC(=O)CCC(=O)O)cc2)cc1
- cell number change: -0.563%
- AC50 [1]: 0.0731 µM [falling, full curve, poor fit]

SMILES: COc1ccc(NC(=O)CCNS(=O)(=O)c2cccc3nonc23)c(OC)c1
- AC50 [1]: 0.731 µM [falling, full curve, poor fit]

SMILES: C/C(=N\NC(=O)c1nnn(-c2nonc2N)c1-c1ccc2c(c1)OCO2)c1cccs1
- cell number change: 35.1%
- AC50 [2]: 29.1 µM [rising, single point]
- AC50 [1]: 29.1 µM [rising, single point]

SMILES: O=c1cc(CN2CCN(c3cccc(Cl)c3)CC2)c2cc3c(cc2o1)CCCC3
- cell number change: 30.8%
- AC50 [2]: 1.84 µM [rising, partial curve, poor fit]
- AC50 [1]: 2.06 µM [rising, partial curve]

SMILES: CCCOc1ccc(/C(O)=C2/C(=O)C(=O)N(CCN(C)C)C2c2ccco2)cc1 (centres undefined)
- cell number change: -156%
- AC50 [2]: 29.1 µM [falling, single point]
- AC50 [1]: 0.13 µM [falling, full curve, poor fit]

SMILES: Cc1cc(C)cc(NC(=O)CN2CCc3cc4c(cc3C2C)OCCCO4)c1 (centres undefined)
- cell number change: -2.99%
- AC50 [1]: 0.231 µM [rising, partial curve, poor fit]

SMILES: CCC(=O)NC(=S)Nc1ccc(S(=O)(=O)NC2CCCCC2)cc1
- cell number change: -7.8%
- AC50 [1]: 0.411 µM [rising, single point]

SMILES: O=C1CC(c2cccc(Cl)c2)Cc2nc(N3CCN(c4ccccc4)CC3)ncc21 (centres undefined)
- AC50 [2]: 2.06 µM [rising, partial curve]
- AC50 [1]: 0.731 µM [rising, single point]

SMILES: COc1ccc(C(=O)Nc2ccc(C3=NNC(=O)CC3C)cc2NC(=O)c2ccc(OC)cc2)cc1 (centres undefined)
- cell number change: 8.83%
- AC50 [2]: 0.731 µM [falling, single point]

SMILES: CC(=O)C1=C(O)C(=O)N(CO)C1c1ccccc1F (centres undefined)
- cell number change: -53.1%
- AC50 [2]: 2.91 µM [falling, partial curve, poor fit]

SMILES: O=C(CSc1nc(NS(=O)(=O)c2ccccc2)cc(=O)[nH]1)Nc1ccccc1Cl
- cell number change: 4.44%

SMILES: C=CCNC(=O)COC(=O)c1ccc(Sc2nncn2C)c([N+](=O)[O-])c1
- cell number change: 33.5%
- AC50 [2]: 29.1 µM [rising, single point]
- AC50 [1]: 20.6 µM [rising, single point]

SMILES: O=C(/C=C/c1ccccc1[N+](=O)[O-])N1CCN(c2ccc(F)cc2)CC1
- cell number change: -30.8%
- AC50 [2]: 29.1 µM [falling, single point]
- AC50 [1]: 29.1 µM [falling, single point]

SMILES: Cc1c(=O)n(OCc2ccccn2)c2ccccc2[n+]1[O-]
- cell number change: 77.8%
- AC50 [2]: 18.4 µM [rising, single point]
- AC50 [1]: 25.9 µM [rising, partial curve]

SMILES: Cc1ccccc1NC(=O)CC1S/C(=N/c2nccs2)N(C)C1=O (centres undefined)
- AC50 [2]: 1.03 µM [rising, partial curve]
- AC50 [1]: 2.31 µM [rising, full curve, poor fit]

SMILES: CCCCn1c(N)c(N(CCOC)C(=O)C2CCN(C(=O)c3ccc(F)cc3)CC2)c(=O)[nH]c1=O
- cell number change: -14.1%
- AC50 [1]: 29.1 µM [falling, single point]

SMILES: Cn1ccc(NC(=O)Nc2ccc(Cl)cc2Cl)n1
- cell number change: -12.4%
- AC50 [1]: 0.92 µM [rising, full curve, poor fit]

SMILES: O=C(CSc1nc2ccccc2[nH]1)NC(=O)NCc1ccco1
- cell number change: 43%
- AC50 [2]: 4.11 µM [rising, full curve, poor fit]

SMILES: CCC(Sc1ccc2nnc(-c3ccc(OC)c(OC)c3)n2n1)C(=O)O (centres undefined)
- cell number change: 1.04%
- AC50 [2]: 1.46 µM [falling, partial curve]
- AC50 [1]: 6.51 µM [falling, single point]

SMILES: Cc1ccc2c(c1)c1c3n2CCN(C=O)C3CCC1 (centres undefined)
- cell number change: 17%
- AC50 [1]: 29.1 µM [rising, single point]

SMILES: CO/N=C(/CS(=O)Cc1ccc(Cl)cc1)c1ccc(Cl)cc1 (centres undefined)
- AC50 [1]: 6.51 µM [rising, single point]

SMILES: COc1ccc(S(=O)(=O)N2CCc3ccccc32)cc1C(=O)N1CCN(C=O)CC1
- cell number change: -2.85%
- AC50 [1]: 6.51 µM [falling, single point]

SMILES: CCCCNC(=O)O[C@@H]1C[C@H]2CCCC(=O)N3CC[C@@H](C1)[C@@H]23
- cell number change: 12.3%

SMILES: CCOC(=O)/C=C1\SCC(=O)N1CC(=O)NC(C)c1ccccc1 (centres undefined)
- cell number change: 6.51%

SMILES: Cn1c(=O)[nH]c(=O)c2c1nc(N1CCCCCC1)n2CCCSc1nc2ccccc2o1
- cell number change: -21.2%
- AC50 [1]: 29.1 µM [falling, single point]

SMILES: COc1ccccc1N1CCN(C(=O)c2cc3n(n2)C(C(F)(F)F)CC(c2ccco2)N3)CC1 (centres undefined)
- cell number change: 8.1%
- AC50 [2]: 0.092 µM [rising, full curve, poor fit]

SMILES: O=c1nc(-c2ccccc2)n(-c2ccc(Cl)cc2)[nH]1
- cell number change: 4.03%
- AC50 [2]: 6.51 µM [rising, single point]
- AC50 [1]: 32.6 µM [rising, single point]

SMILES: Cc1cccc(CS(=O)(=O)Cc2ccc(C(=O)NCCN3CCCCC3C)o2)c1 (centres undefined)
- cell number change: 15.1%

SMILES: COc1ccc(/C(C)=N/N2CCCCC2)c(O)c1
- cell number change: -9.01%

SMILES: Cc1c(C)[n+](=O)c2c(n1[O-])CCC2
- cell number change: -8.8%
- AC50 [2]: 0.366 µM [rising, full curve, poor fit]

SMILES: Cc1ccc2nsnc2c1NC(=O)c1ccc([N+](=O)[O-])cc1
- cell number change: 9.94%

SMILES: CCOC(=O)c1c(C)c(C)n(Cc2ccc(OC)c(OC)c2)c1C
- cell number change: 40.2%
- AC50 [2]: 14.6 µM [rising, single point]
- AC50 [1]: 16.4 µM [rising, single point]

SMILES: COc1ccc(-n2c(=S)[nH]c3cc(C(=O)NCc4ccco4)ccc3c2=O)c(OC)c1
- cell number change: 65%
- AC50 [2]: 29.1 µM [rising, single point]

SMILES: COC(=O)c1nn(-c2ccc(OC)cc2)c(=O)c2c(N)sc(C)c12
- cell number change: 9.54%

SMILES: CCOC(=O)C(=O)Nc1ccc(Oc2ccccc2)cc1
- cell number change: 0.805%

SMILES: COc1ccc(S(=O)(=O)N2CCC(C(=O)N[C@H](C(=O)NCc3ccncc3)C(C)C)CC2)cc1
- cell number change: -24.4%
- AC50 [1]: 29.1 µM [falling, single point]

SMILES: COc1ccc(N2C(=O)CC(n3cnc4ccccc43)C2=O)cc1 (centres undefined)
- cell number change: 1.91%

SMILES: Cc1ccccc1N=C(NOCc1ccc(Cl)cc1Cl)c1nonc1N
- cell number change: -59%
- AC50 [2]: 8.2 µM [falling, partial curve]
- AC50 [1]: 13 µM [falling, partial curve]

SMILES: COc1cccc(NC(=S)/C(=C(\[O-])c2ccc(C)c([N+](=O)[O-])c2)[n+]2ccccc2)c1
- cell number change: 67.8%
- AC50 [2]: 8.2 µM [rising, partial curve]

SMILES: Fc1ccccc1-c1csc(=Nc2cccnc2)n1CCCn1ccnc1
- cell number change: -3.77%
- AC50 [1]: 0.184 µM [rising, partial curve, poor fit]

SMILES: O=C(NNS(=O)(=O)c1cc(Cl)cc(Cl)c1)c1sccc1-n1cccc1
- cell number change: 12.9%
- AC50 [1]: 18.4 µM [rising, single point]

SMILES: O=C(Cn1nnc(-c2ccccc2)n1)Nc1ccc2c(c1)OCO2
- cell number change: 44.9%
- AC50 [2]: 16.4 µM [rising, single point]

SMILES: COc1ccc(/C=N/N=C2/NC(=O)C(CC(=O)O)S2)cc1OS(=O)(=O)c1ccccc1 (centres undefined)
- cell number change: -19.9%
- AC50 [1]: 6.51 µM [falling, single point]

SMILES: O=C(N/N=C/c1ccc2c(c1)OCO2)c1ccc(Cl)cc1Cl
- cell number change: -9.52%
- AC50 [1]: 0.058 µM [falling, full curve, poor fit]

SMILES: COC(=O)[C@H](CCSC)NC(=O)Nc1ccc(OC)cc1OC
- cell number change: 1.17%
